# Measurements from PubChem BioAssay AID248 (DTP/NCI, 2004).
# The list shows only some results of the screen, not a fair sample: it is rich in T/C values a quarter to a half above the control, in often repeated tests (any T/C) and in doses without a T/C. Other doses and runs of a compound stand elsewhere. T/C is the treated group as % of the vehicle group. Some doses have a count of surviving animals in place of a T/C: the source holds a T/C of zero for them, seemingly a mark for toxic or unscored doses. Some survivor counts are full or nearly so, which does not show that the dose was tolerated: survival well below the control is almost never listed, so the zero probably covers shortened survival too. Counts of survivors are from the toxicity check (mostly the fifth day) where no day follows; animals may have died later. Schedule codes are those of the source, taken here to give the interval after Q, in days (D) or hours (H), and the number of doses after X. Some entries were tested several times; the results are listed from low to high. Some schedules carry Z or #; the key to these is not given. Where survival is the endpoint, this PubChem deposit counts one and a half times the control or more as active, and values a quarter to a half above the control carry no call in these data; other NCI protocols may use other cut-offs. Some T/C values are followed by the survivors on the day toxicity was checked, most often the fifth; where none is given, no animal had died by that day. Brackets with × count equal records among those shown.
# Test system: L1210 leukemia ip in BDF1 mice, survival T/C
# Experiment: NCI In Vivo Anticancer Drug Screen. Data for tumor model L1210 Leukemia (intraperitoneal) in B6D2F1 (BDF1) mice
# Conditions: T/C endpoint: mean survival time, higher T/C = longer survival
# [1] = dose: 3200.0 mg/kg/injection, schedule: Q01DX010 (ip), vehicle: saline
compound,measurement,setting,value
O=c1cnn(C2OC(CO)C(O)C2O)c(=O)[nH]1 (centres undefined),survivor count,"dose: 25.0 mg/kg/injection, schedule: Q01DX006 (iv), vehicle: saline",3 of 6
same,T/C,"dose: 32.0 mg/kg/injection, schedule: Q01DX009 (ip), vehicle: saline",146 % of control
same,T/C,"dose: 50.0 mg/kg/injection, schedule: Q01DX006 (iv), vehicle: saline",134 % of control
same,T/C,"dose: 50.0 mg/kg/injection, schedule: Q01DX010 (ip), vehicle: saline",137 % of control
same,T/C,"dose: 50.0 mg/kg/injection, schedule: Q01DX Z (oral), vehicle: saline",136 % of control
same,T/C,"dose: 50.0 mg/kg/injection, schedule: Q#A X Z (ip), vehicle: other",138 % of control
same,T/C,"dose: 64.0 mg/kg/injection, schedule: Q01DX009 (ip), vehicle: saline",139 % of control
same,T/C,"dose: 64.0 mg/kg/injection, schedule: Q01DX009 (oral), vehicle: saline",145 % of control
same,T/C,"dose: 75.0 mg/kg/injection, schedule: Q01DX009 (ip), vehicle: saline",142 % of control
same,T/C,"dose: 75.0 mg/kg/injection, schedule: Q01DX009 (oral), vehicle: saline",143 % of control
same,T/C,"dose: 75.0 mg/kg/injection, schedule: Q01DX009 (sc), vehicle: saline",135 % of control
same,T/C,"dose: 75.0 mg/kg/injection, schedule: Q03DX Z (ip), vehicle: saline",148 % of control
same,T/C,"dose: 100.0 mg/kg/injection, schedule: Q01DX006 (iv), vehicle: saline",129 % of control
same,T/C,"dose: 100.0 mg/kg/injection, schedule: Q01DX010 (ip), vehicle: saline",130 % of control
same,T/C,"dose: 100.0 mg/kg/injection, schedule: Q01DX Z (im), vehicle: saline",140 % of control
same,T/C,"dose: 100.0 mg/kg/injection, schedule: Q01DX Z (ip), vehicle: methylcellulose (MC)",131 and 134 % of control
same,T/C,"dose: 100.0 mg/kg/injection, schedule: Q01DX Z (ip), vehicle: saline",147 % of control
same,T/C,"dose: 100.0 mg/kg/injection, schedule: Q01DX Z (oral), vehicle: other",144 % of control
same,T/C,"dose: 100.0 mg/kg/injection, schedule: Q#A X Z (ip), vehicle: other",145 % of control
same,T/C,"dose: 128.0 mg/kg/injection, schedule: Q01DX009 (ip), vehicle: saline",134 % of control
same,T/C,"dose: 128.0 mg/kg/injection, schedule: Q01DX009 (oral), vehicle: saline",146 % of control
same,T/C,"dose: 128.0 mg/kg/injection, schedule: Q03HX016 (ip), vehicle: saline",136 % of control
same,T/C,"dose: 150.0 mg/kg/injection, schedule: Q01DX009 (ip), vehicle: saline",136 % of control
same,T/C,"dose: 150.0 mg/kg/injection, schedule: Q01DX009 (oral), vehicle: saline",138 % of control
same,T/C,"dose: 150.0 mg/kg/injection, schedule: Q01DX009 (sc), vehicle: saline",129 % of control
same,T/C,"dose: 150.0 mg/kg/injection, schedule: Q03DX Z (ip), vehicle: saline",140 % of control
same,T/C,"dose: 200.0 mg/kg/injection, schedule: Q01DX006 (iv), vehicle: saline",129 % of control
same,T/C,"dose: 200.0 mg/kg/injection, schedule: Q01DX009 (ip), vehicle: saline",125 % of control
same,T/C,"dose: 200.0 mg/kg/injection, schedule: Q01DX010 (ip), vehicle: saline","124, 127, 137, 140, 143, 156 % of control"
same,T/C,"dose: 200.0 mg/kg/injection, schedule: Q01DX Z (im), vehicle: saline",139 % of control
same,T/C,"dose: 200.0 mg/kg/injection, schedule: Q01DX Z (ip), vehicle: methylcellulose (MC)","114, 131, 132 (2×), 145 % of control"
same,T/C,"dose: 200.0 mg/kg/injection, schedule: Q01DX Z (ip), vehicle: saline",134 % of control
same,T/C,"dose: 200.0 mg/kg/injection, schedule: Q01DX Z (oral), vehicle: other",142 % of control
same,T/C,"dose: 200.0 mg/kg/injection, schedule: Q01DX Z (oral), vehicle: saline",140 % of control
same,T/C,"dose: 200.0 mg/kg/injection, schedule: Q#A X Z (ip), vehicle: other",145 % of control
same,T/C,"dose: 256.0 mg/kg/injection, schedule: Q01DX009 (ip), vehicle: saline",143 % of control
same,T/C,"dose: 256.0 mg/kg/injection, schedule: Q01DX009 (oral), vehicle: saline",147 % of control
same,T/C,"dose: 256.0 mg/kg/injection, schedule: Q03HX016 (oral), vehicle: saline",143 % of control
same,T/C,"dose: 268.0 mg/kg/injection, schedule: Q01DX009 (ip), vehicle: saline, evaluated on day 5",125 % of control
same,T/C,"dose: 268.0 mg/kg/injection, schedule: Q01DX009 (ip), vehicle: saline, evaluated on day 60",125 % of control
same,T/C,"dose: 300.0 mg/kg/injection, schedule: Q01DX009 (ip), vehicle: saline",137 % of control
same,T/C,"dose: 300.0 mg/kg/injection, schedule: Q01DX009 (sc), vehicle: saline",140 % of control
same,T/C,"dose: 300.0 mg/kg/injection, schedule: Q01DX Z (ip), vehicle: methylcellulose (MC)",134 and 137 % of control
same,T/C,"dose: 300.0 mg/kg/injection, schedule: Q03DX Z (ip), vehicle: saline",127 % of control
same,T/C,"dose: 400.0 mg/kg/injection, schedule: Q01DX006 (iv), vehicle: saline",135 % of control
same,T/C,"dose: 400.0 mg/kg/injection, schedule: Q01DX009 (ip), vehicle: saline, evaluated on day 5",128 % of control
same,T/C,"dose: 400.0 mg/kg/injection, schedule: Q01DX009 (ip), vehicle: saline, evaluated on day 30",125 % of control
same,T/C,"dose: 400.0 mg/kg/injection, schedule: Q01DX009 (ip), vehicle: saline, evaluated on day 60",129 % of control
same,T/C,"dose: 400.0 mg/kg/injection, schedule: Q01DX010 (ip), vehicle: saline",128 (2×) and 129 % of control (2×)
same,T/C,"dose: 400.0 mg/kg/injection, schedule: Q01DX Z (im), vehicle: saline",139 % of control
same,T/C,"dose: 400.0 mg/kg/injection, schedule: Q01DX Z (ip), vehicle: saline",147 % of control
same,T/C,"dose: 400.0 mg/kg/injection, schedule: Q01DX Z (oral), vehicle: other",135 % of control
same,T/C,"dose: 400.0 mg/kg/injection, schedule: Q#A X Z (ip), vehicle: other",132 % of control
same,T/C,"dose: 450.0 mg/kg/injection, schedule: Q01DX Z (ip), vehicle: methylcellulose (MC)","124, 125, 128, 134 % of control"
same,T/C,"dose: 600.0 mg/kg/injection, schedule: Q01DX009 (ip), vehicle: saline, evaluated on day 5",131 % of control
same,T/C,"dose: 600.0 mg/kg/injection, schedule: Q01DX009 (ip), vehicle: saline, evaluated on day 40",127 % of control
same,T/C,"dose: 600.0 mg/kg/injection, schedule: Q01DX009 (ip), vehicle: saline, evaluated on day 60",132 % of control
same,T/C,"dose: 600.0 mg/kg/injection, schedule: Q01DX009 (sc), vehicle: saline",126 % of control
same,T/C,"dose: 600.0 mg/kg/injection, schedule: Q03DX Z (ip), vehicle: other",125 % of control
same,T/C,"dose: 600.0 mg/kg/injection, schedule: Q03DX Z (ip), vehicle: saline",148 % of control
same,T/C,"dose: 600.0 mg/kg/injection, schedule: Q## X024 (ip), vehicle: saline",146 % of control
same,T/C,"dose: 675.0 mg/kg/injection, schedule: Q01DX Z (ip), vehicle: methylcellulose (MC)",134 and 139 % of control
same,T/C,"dose: 800.0 mg/kg/injection, schedule: Q01DX006 (iv), vehicle: saline",127 % of control [5 of 6 alive]
same,T/C,"dose: 800.0 mg/kg/injection, schedule: Q01DX010 (ip), vehicle: saline","124, 131, 133, 153 % of control"
same,T/C,"dose: 800.0 mg/kg/injection, schedule: Q01DX Z (ip), vehicle: methylcellulose (MC)",135 and 140 % of control
same,T/C,"dose: 800.0 mg/kg/injection, schedule: Q01DX Z (ip), vehicle: saline",137 % of control
same,T/C,"dose: 800.0 mg/kg/injection, schedule: Q01DX Z (oral), vehicle: other",132 % of control
same,T/C,"dose: 800.0 mg/kg/injection, schedule: Q01DX Z (oral), vehicle: saline",136 % of control
same,T/C,"dose: 1200.0 mg/kg/injection, schedule: Q01DX001 (ip), vehicle: saline",139 % of control
same,T/C,"dose: 1200.0 mg/kg/injection, schedule: Q01DX005 (ip), vehicle: saline",129 % of control
same,T/C,"dose: 1200.0 mg/kg/injection, schedule: Q03DX Z (ip), vehicle: saline",130 % of control
same,T/C,"dose: 1200.0 mg/kg/injection, schedule: Q## X016 (ip), vehicle: saline",138 % of control
same,T/C,"dose: 1400.0 mg/kg/injection, schedule: Q07DX Z (ip), vehicle: saline",142 % of control
same,survivor count,"dose: 1600.0 mg/kg/injection, schedule: Q01DX006 (iv), vehicle: saline",1 of 6
same,T/C,"dose: 1600.0 mg/kg/injection, schedule: Q01DX010 (ip), vehicle: saline","95, 112 [5 of 6 alive], 113, 168 % of control"
same,T/C,"dose: 1600.0 mg/kg/injection, schedule: Q01DX Z (im), vehicle: saline",128 % of control
same,T/C,"dose: 1600.0 mg/kg/injection, schedule: Q01DX Z (ip), vehicle: saline",134 % of control
same,survivor count,"dose: 1600.0 mg/kg/injection, schedule: Q#A X Z (ip), vehicle: saline",5 of 6
same,T/C,"dose: 2048.0 mg/kg/injection, schedule: Q03HX016 (oral), vehicle: saline",147 % of control
same,T/C,"dose: 2400.0 mg/kg/injection, schedule: Q01DX001 (ip), vehicle: saline",139 % of control
same,T/C,"dose: 2400.0 mg/kg/injection, schedule: Q03DX Z (ip), vehicle: saline",133 and 142 % of control
same,T/C,"dose: 2400.0 mg/kg/injection, schedule: Q## X003 (ip), vehicle: saline",128 % of control
same,T/C,"dose: 2400.0 mg/kg/injection, schedule: Q## X008 (ip), vehicle: saline",126 % of control
same,T/C,"dose: 2400.0 mg/kg/injection, schedule: Q## X016 (ip), vehicle: saline",135 % of control
same,T/C,"dose: 2800.0 mg/kg/injection, schedule: Q01DX001 (ip), vehicle: saline",127 % of control
same,T/C,"dose: 2800.0 mg/kg/injection, schedule: Q07DX Z (ip), vehicle: saline",125 % of control
same,survivor count,"dose: 3200.0 mg/kg/injection, schedule: Q01DX006 (iv), vehicle: saline",3 of 6
same,T/C,[1],93 and 142 % of control
same,survivor count,[1],5 of 6 and 6 of 6
same,survivor count,"dose: 3200.0 mg/kg/injection, schedule: Q01DX Z (ip), vehicle: saline",6 of 6
same,survivor count,"dose: 3200.0 mg/kg/injection, schedule: Q01DX Z (oral), vehicle: other",7 of 7
same,survivor count,"dose: 3200.0 mg/kg/injection, schedule: Q01DX Z (oral), vehicle: saline",5 of 6
same,T/C,"dose: 4800.0 mg/kg/injection, schedule: Q03DX Z (ip), vehicle: saline",144 % of control
same,T/C,"dose: 5600.0 mg/kg/injection, schedule: Q07DX Z (ip), vehicle: other",132 % of control
